No constants are given. Whether binding was seen depends on the method and setting. Binding seen in cells or lysates may run through a third protein. Some entries that bind do so weakly or less than the wild type.
Columns and labels:
[1] = target: Flag-PCAF (p300/CBP-associated Factor) (UniProt Q92831); experiment: co-IP; MIA PaCa-2 cells co-transfected with a pCDNA3-2×Flag and a pCDNA3-6×Myc construct; lysates immunoprecipitated with anti-Flag and anti-Myc resins; immunoblots with anti-Flag and anti-Myc antibodies
Flag-c-MYC = Flag-c-MYC (UniProt P01106); experiment: as above
[2] = target: c-MYC (human (endogenous in pancreatic tissue of AP patients)) (UniProt P01106); experiment: co-IP; pancreatic tissues from three AP patients mixed and lysed; immunoprecipitation with IgG or anti-c-MYC antibody on protein A beads; immunoblots for c-MYC, PCAF, CtBP1 and CtBP2

Sequences of proteins named here, by UniProt entry; tags and fusion partners are left off.
UniProt Q92831: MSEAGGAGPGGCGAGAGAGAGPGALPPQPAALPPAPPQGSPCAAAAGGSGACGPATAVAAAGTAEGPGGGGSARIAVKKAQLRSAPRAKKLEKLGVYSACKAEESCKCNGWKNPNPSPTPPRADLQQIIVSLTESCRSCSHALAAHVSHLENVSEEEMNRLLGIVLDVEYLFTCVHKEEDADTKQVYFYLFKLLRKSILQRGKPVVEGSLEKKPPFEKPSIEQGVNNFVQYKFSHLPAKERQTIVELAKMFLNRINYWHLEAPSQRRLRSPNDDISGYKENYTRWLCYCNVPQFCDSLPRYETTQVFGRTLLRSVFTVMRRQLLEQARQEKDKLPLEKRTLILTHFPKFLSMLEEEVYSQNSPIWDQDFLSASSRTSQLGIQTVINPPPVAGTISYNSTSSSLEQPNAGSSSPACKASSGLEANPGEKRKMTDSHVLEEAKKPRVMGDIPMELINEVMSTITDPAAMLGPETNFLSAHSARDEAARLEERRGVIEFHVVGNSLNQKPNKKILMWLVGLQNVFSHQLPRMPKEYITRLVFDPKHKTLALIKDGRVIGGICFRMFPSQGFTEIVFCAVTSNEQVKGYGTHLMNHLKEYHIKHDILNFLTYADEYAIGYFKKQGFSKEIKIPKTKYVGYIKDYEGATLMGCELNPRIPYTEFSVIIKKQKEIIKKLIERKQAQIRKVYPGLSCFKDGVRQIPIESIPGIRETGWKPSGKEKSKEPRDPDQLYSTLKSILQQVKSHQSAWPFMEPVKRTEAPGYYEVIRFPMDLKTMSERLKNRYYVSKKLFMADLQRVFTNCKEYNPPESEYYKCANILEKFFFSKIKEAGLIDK
UniProt P01106: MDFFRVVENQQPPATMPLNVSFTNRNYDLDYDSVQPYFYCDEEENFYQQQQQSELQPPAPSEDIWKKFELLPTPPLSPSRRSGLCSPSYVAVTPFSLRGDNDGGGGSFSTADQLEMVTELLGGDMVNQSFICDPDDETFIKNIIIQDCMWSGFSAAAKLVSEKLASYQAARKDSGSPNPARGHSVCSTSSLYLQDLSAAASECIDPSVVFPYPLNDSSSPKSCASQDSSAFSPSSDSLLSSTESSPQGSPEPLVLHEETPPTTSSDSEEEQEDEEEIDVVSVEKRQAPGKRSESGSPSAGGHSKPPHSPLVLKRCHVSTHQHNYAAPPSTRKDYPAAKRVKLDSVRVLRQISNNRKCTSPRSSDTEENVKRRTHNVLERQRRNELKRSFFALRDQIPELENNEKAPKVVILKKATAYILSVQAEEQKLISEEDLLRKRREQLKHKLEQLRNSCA

binding [1] | binding (Flag-c-MYC) | binding [2] | Substance
binds | no binding | – | Myc-CtBP2 (C-terminal Binding Protein 2) (from UniProt P56545 1-445)
binds | – | – | Myc-c-MYC (from UniProt P01106 1-454)
– | – | binds | PCAF (p300/CBP-associated Factor) (from UniProt Q92831 1-832)
– | binds | – | Myc-PCAF (p300/CBP-associated Factor) (from UniProt Q92831 1-832)
